Test results published in the supplement of paper PMC10849652.
The list shows a part of the results.

Amino acid sequences for entries named in this document (tags omitted). A change or cut given only in a name is not applied to a line headed by its entry.
UniProt Q9BU89: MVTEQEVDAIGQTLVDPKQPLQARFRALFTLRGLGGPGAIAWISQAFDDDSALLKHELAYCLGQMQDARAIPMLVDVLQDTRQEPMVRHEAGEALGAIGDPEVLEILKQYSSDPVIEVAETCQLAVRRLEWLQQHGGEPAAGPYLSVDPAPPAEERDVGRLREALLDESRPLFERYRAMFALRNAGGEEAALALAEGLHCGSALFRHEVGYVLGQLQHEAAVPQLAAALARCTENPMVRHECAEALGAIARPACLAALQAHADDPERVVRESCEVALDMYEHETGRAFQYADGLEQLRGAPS
UniProt Q6P2E9: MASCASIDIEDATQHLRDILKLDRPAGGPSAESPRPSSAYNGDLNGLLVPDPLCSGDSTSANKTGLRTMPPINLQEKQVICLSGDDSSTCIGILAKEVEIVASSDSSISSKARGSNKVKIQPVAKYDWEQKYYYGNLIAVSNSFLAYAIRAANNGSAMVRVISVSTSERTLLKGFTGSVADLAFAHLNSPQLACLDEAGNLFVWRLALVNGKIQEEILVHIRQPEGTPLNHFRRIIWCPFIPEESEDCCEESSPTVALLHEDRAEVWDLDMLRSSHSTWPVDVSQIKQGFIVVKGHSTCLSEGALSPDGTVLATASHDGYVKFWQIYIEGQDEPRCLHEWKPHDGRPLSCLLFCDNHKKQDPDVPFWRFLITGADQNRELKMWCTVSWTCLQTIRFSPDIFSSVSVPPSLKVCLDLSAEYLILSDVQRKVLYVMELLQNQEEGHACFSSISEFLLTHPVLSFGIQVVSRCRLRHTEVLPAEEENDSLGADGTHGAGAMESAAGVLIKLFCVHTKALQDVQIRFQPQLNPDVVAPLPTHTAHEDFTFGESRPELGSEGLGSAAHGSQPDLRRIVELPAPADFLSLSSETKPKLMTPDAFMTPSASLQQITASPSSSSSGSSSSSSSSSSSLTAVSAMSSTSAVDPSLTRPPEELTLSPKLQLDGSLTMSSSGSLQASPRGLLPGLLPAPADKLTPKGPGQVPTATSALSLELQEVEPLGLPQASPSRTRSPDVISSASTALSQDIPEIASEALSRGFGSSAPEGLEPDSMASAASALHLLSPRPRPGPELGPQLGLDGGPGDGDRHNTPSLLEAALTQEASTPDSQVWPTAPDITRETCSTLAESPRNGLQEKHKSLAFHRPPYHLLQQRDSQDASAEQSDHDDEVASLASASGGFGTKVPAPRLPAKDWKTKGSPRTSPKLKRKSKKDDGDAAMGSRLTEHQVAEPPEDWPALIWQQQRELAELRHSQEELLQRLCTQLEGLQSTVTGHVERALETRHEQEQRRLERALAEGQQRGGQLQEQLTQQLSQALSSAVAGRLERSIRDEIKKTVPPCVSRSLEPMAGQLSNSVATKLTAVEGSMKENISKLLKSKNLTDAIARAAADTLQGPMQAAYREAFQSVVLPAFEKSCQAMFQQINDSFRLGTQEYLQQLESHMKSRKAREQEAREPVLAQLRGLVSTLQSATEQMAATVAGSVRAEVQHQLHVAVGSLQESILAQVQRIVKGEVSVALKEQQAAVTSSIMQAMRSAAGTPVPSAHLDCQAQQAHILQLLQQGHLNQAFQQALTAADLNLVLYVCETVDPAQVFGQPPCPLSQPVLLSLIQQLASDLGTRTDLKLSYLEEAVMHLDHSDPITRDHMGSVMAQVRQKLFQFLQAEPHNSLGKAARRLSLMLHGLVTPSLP
UniProt Q01658: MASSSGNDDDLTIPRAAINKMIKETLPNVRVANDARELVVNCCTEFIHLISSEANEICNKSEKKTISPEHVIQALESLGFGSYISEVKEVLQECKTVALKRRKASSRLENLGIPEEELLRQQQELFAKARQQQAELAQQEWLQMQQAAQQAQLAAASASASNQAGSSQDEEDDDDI
UniProt Q9C005, whole entry, looked up: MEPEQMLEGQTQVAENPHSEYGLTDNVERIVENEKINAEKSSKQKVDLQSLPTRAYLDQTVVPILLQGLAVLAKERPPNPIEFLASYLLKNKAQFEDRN
UniProt Q13217: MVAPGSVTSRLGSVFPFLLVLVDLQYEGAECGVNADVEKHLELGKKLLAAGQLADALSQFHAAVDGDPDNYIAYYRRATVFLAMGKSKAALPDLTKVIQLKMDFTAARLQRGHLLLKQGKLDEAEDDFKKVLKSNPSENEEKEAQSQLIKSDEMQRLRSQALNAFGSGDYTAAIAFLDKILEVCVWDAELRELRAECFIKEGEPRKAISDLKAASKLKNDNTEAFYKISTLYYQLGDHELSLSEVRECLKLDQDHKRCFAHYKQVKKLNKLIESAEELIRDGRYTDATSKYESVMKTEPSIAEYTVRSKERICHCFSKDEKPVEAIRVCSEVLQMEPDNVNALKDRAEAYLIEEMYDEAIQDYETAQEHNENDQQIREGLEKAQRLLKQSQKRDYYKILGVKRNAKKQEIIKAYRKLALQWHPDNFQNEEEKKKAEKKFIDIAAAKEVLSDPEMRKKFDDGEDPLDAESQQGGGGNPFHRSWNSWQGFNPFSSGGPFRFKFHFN
UniProt Q9BZG8: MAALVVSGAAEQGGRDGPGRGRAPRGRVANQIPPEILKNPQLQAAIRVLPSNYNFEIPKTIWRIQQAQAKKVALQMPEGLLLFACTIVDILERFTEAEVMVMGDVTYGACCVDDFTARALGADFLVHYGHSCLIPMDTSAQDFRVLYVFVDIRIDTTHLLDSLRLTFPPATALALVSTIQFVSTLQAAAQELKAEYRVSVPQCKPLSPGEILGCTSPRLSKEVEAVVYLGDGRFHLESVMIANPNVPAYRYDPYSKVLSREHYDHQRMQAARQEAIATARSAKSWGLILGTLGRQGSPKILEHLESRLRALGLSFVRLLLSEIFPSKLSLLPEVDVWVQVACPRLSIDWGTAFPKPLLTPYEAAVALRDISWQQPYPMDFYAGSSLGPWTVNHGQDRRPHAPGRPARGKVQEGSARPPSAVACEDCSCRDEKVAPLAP
UniProt Q9NP97, whole entry, looked up: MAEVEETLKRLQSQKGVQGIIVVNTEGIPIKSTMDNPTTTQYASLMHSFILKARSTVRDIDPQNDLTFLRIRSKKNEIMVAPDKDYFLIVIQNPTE
UniProt Q9H3Z4: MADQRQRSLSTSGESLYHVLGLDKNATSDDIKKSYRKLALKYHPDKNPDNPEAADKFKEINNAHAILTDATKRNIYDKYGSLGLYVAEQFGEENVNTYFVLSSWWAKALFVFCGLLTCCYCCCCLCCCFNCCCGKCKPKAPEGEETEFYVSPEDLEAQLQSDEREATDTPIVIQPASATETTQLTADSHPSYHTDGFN
UniProt Q9UBS4: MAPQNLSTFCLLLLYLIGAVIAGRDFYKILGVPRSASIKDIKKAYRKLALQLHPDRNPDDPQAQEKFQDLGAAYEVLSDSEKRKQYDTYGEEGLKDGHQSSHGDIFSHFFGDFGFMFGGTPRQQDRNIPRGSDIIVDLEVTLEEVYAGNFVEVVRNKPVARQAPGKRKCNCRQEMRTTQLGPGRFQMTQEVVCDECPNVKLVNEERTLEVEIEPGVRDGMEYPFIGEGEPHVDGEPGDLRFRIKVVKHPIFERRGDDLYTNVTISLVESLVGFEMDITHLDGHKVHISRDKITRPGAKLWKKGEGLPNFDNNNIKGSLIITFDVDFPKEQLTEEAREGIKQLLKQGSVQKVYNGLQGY
UniProt Q8WWZ3: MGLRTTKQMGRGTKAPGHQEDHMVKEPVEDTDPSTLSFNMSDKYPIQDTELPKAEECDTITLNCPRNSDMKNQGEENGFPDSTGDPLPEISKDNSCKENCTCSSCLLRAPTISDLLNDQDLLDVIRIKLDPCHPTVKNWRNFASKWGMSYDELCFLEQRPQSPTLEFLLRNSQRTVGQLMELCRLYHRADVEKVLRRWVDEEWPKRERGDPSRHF
UniProt Q92611: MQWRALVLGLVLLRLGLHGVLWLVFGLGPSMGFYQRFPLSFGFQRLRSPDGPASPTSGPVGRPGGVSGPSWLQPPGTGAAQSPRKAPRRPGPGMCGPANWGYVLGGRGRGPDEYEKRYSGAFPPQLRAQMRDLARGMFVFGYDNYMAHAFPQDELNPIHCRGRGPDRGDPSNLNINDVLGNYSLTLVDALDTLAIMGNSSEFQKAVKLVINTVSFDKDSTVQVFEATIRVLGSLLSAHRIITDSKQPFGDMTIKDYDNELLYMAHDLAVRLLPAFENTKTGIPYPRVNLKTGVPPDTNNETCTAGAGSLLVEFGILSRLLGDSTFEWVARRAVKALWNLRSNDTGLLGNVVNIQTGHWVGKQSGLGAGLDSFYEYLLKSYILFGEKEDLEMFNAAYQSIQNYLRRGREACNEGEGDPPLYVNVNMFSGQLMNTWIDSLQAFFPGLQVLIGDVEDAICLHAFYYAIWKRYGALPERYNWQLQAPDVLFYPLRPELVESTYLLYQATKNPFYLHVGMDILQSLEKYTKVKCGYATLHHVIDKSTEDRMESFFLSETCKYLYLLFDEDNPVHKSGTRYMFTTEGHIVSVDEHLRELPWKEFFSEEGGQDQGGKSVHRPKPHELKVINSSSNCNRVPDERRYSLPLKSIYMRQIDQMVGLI
UniProt Q9BZ29: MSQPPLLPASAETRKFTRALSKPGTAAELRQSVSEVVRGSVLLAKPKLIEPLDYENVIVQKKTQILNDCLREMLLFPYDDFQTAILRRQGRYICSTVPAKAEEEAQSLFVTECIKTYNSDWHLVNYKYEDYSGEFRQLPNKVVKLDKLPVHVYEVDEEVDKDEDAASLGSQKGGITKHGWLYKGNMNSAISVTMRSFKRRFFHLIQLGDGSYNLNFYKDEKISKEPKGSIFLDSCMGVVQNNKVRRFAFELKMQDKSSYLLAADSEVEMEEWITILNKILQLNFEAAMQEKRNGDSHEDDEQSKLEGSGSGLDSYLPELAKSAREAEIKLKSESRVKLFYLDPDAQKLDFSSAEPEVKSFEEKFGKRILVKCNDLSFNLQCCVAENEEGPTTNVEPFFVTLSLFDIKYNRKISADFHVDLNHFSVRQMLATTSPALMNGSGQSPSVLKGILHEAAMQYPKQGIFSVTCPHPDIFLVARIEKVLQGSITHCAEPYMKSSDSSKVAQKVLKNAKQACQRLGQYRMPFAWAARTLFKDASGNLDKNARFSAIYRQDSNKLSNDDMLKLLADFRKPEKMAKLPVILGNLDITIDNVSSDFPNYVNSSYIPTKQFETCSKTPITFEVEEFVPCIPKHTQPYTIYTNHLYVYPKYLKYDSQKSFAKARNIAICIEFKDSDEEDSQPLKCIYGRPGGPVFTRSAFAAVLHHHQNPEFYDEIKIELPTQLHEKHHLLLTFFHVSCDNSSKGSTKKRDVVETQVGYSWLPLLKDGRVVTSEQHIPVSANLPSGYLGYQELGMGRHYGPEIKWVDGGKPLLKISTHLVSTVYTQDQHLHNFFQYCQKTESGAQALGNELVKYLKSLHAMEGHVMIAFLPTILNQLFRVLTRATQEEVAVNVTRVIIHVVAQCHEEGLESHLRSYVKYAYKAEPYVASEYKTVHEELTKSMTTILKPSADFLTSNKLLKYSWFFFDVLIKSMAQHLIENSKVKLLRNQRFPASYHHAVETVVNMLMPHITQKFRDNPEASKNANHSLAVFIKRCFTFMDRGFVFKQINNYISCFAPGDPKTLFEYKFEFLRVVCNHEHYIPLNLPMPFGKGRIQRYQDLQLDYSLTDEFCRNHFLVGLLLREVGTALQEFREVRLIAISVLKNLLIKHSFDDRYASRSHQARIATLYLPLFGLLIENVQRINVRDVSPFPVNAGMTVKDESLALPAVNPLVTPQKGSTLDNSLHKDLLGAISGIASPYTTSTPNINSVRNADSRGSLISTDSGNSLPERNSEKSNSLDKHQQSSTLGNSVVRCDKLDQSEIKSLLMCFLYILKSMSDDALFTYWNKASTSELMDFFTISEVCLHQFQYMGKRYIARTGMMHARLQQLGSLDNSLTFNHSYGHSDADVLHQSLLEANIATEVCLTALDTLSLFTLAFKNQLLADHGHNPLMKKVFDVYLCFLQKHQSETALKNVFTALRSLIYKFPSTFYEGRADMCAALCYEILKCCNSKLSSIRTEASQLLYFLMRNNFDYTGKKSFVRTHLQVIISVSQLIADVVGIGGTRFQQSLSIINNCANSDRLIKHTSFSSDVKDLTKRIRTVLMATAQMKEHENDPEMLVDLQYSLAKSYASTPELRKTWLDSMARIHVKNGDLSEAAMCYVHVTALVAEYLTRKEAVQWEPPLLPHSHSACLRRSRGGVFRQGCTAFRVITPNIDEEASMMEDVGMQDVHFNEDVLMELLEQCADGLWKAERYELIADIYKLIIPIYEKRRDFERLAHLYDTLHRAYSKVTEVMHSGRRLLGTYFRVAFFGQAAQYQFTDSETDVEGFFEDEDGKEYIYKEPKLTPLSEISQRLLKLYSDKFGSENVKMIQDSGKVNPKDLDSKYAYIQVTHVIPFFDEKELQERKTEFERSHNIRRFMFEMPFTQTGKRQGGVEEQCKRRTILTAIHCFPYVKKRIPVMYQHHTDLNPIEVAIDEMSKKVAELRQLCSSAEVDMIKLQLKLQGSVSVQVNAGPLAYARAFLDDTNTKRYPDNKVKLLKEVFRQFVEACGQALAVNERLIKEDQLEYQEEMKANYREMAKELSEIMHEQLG

Assays:
Assay in all cases: log2 fold change, soluble protein after heating vs DMSO (PISA); higher = thermal stabilisation; K562 cells, 10 uM, 30 min; active = over 0.2 and 3.5 SD of the protein, either way, in both replicates (recomputed)
[1] = compound: NC(=O)Nc1cc(-c2cccc(F)c2)sc1C(=O)N[C@H]1CCCNC1
Method in brief: (§1)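 Quantification of soluble protein used TMTpro 16plex LC-MS/MS, with channel sums equalised. Samples were the supernatant after 21,000xg for 90 min of pooled aliquots from K562 cells (2×10^6 cells/mL) treated with 10 μM compound for 30 min, heated for 3 min over 48°C-58°C, and extracted in PBS with 0.5% NP-40 at 4°C. Values, from duplicates, describe thermal stability against control samples on a log2 fold-change scale.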

[2] = compound: NC(=O)c1cnc(N[C@@H]2CCCC[C@@H]2N)nc1Nc1cccc(-n2nccn2)c1
Method in brief: as §1

[3] = compound: NC1(c2ccc(-c3nc4ccn5c(=O)[nH]nc5c4cc3-c3ccccc3)cc2)CCC1
Method in brief: as §1

[4] = compound: NCC(=O)Nc1ccc(-n2nc(C(F)(F)F)cc2-c2ccc3c(ccc4ccccc43)c2)cc1
Method in brief: as §1

entinostat = compound: Nc1ccccc1NC(=O)c1ccc(CNC(=O)OCc2cccnc2)cc1 [entinostat]
Method in brief: as §1

vorinostat = compound: O=C(CCCCCCC(=O)Nc1ccccc1)NO [vorinostat]
Method in brief: as §1

citarinostat = compound: O=C(CCCCCCNC(=O)c1cnc(N(c2ccccc2)c2ccccc2Cl)nc1)NO [citarinostat]
Method in brief: as §1

silmitasertib = compound: O=C(O)c1ccc2c(c1)nc(Nc1cccc(Cl)c1)c1ccncc12 [silmitasertib]
Method in brief: as §1

[5] = compound: O=C1NC(=O)C(c2cnc3ccccn23)=C1c1cn2c3c(cc(F)cc13)CN(C(=O)N1CCCCC1)CC2
Method in brief: as §1

[6] = compound: c1cc(OCCN2CCCCC2)cc(-c2n[nH]c3ccc(-c4nnc[nH]4)cc23)c1
Method in brief: as §1

entospletinib = compound: c1cn2cc(-c3ccc4cn[nH]c4c3)nc(Nc3ccc(N4CCOCC4)cc3)c2n1 [entospletinib]
Method in brief: as §1

Target	log2 fold change [1]	log2 fold change [2]	log2 fold change [3]	log2 fold change [4]	log2 fold change (entinostat)	log2 fold change (vorinostat)	log2 fold change (citarinostat)	log2 fold change (silmitasertib)	log2 fold change [5]	log2 fold change [6]	log2 fold change (entospletinib)
DOHH (UniProt Q9BU89)	inactive: 0.043	inactive: 0.056	inactive: 0.278	inactive: 0.009	inactive: -0.106	inactive: -0.04	inactive: 0.017	inactive: 0.047	inactive: 0.153	inactive: 0.283	–
EDC4 (UniProt Q6P2E9)	inactive: -0.06	inactive: -0.024	inactive: -0.026	inactive: -0.082	inactive: 0.026	inactive: -0.023	inactive: 0.035	inactive: -0.05	inactive: -0.066	active: -0.253	–
DR1 (UniProt Q01658)	inactive: 0.001	inactive: -0.017	inactive: 0.011	inactive: 0.004	inactive: 0.001	inactive: 0.001	inactive: 0.01	inactive: 0.015	inactive: -0.005	inactive: -0.056	inactive: -0.081
DPP3 (UniProt Q9NY33)	inactive: -0.013	inactive: 0.013	inactive: -0.121	inactive: -0.035	inactive: -0.005	inactive: 0.111	inactive: 0.032	inactive: -0.043	inactive: -0.017	inactive: 0	inactive: -0.015
DPY30 (UniProt Q9C005)	inactive: 0.283	inactive: 0.32	inactive: 0.109	inactive: 0.329	inactive: 0.213	inactive: -0.201	inactive: -0.166	inactive: -0.035	inactive: -0.04	inactive: -0.15	inactive: 0.002
DUSP12 (UniProt Q9UNI6)	inactive: -0.017	inactive: -0.099	inactive: -0.135	inactive: -0.075	inactive: -0.006	inactive: -0.016	inactive: 0.036	inactive: 0.002	inactive: -0.055	inactive: -0.031	inactive: 0.071
DNAJC3 (UniProt Q13217)	inactive: -0.061	inactive: 0.071	inactive: -0.043	inactive: 0.015	inactive: -0.024	inactive: -0.006	inactive: 0	inactive: 0.045	inactive: -0.056	inactive: -0.039	inactive: -0.015
DPH1 (UniProt Q9BZG8)	inactive: 0	inactive: -0.031	inactive: -0.049	inactive: 0.106	inactive: 0.005	inactive: 0.036	inactive: 0.023	inactive: -0.08	inactive: -0.065	inactive: -0.016	inactive: -0.075
DPF2 (UniProt Q92785)	inactive: -0.064	inactive: -0.09	inactive: -0.014	inactive: 0.024	inactive: -0.061	inactive: 0.049	inactive: 0.054	inactive: 0.022	inactive: -0.124	inactive: -0.02	inactive: 0.014
DSC2 (UniProt Q02487)	inactive: -0.078	inactive: 0.04	inactive: -0.129	inactive: -0.061	inactive: -0.233	inactive: 0.083	inactive: 0.016	inactive: -0.006	inactive: 0.019	inactive: -0.027	inactive: 0.054
ECE1 (UniProt P42892)	inactive: 0.018	inactive: -0.144	inactive: -0.234	inactive: -0.049	inactive: -0.046	inactive: 0.07	inactive: 0.076	inactive: -0.039	inactive: -0.049	inactive: -0.18	inactive: -0.045
DNAJB4 (UniProt Q9UDY4)	inactive: 0.012	inactive: -0.114	inactive: 0.015	inactive: -0.032	inactive: 0.008	inactive: -0.035	inactive: 0.046	inactive: -0.044	inactive: -0.038	inactive: -0.049	inactive: -0.036
DYNLRB1 (UniProt Q9NP97)	inactive: -0.011	inactive: -0.023	inactive: -0.01	inactive: -0.046	inactive: -0.004	inactive: -0.086	inactive: -0.049	inactive: -0.014	inactive: -0.192	inactive: -0.068	inactive: 0.02
DOCK11 (UniProt Q5JSL3)	inactive: -0.04	inactive: -0.052	inactive: -0.102	inactive: -0.083	inactive: 0.053	inactive: 0.025	inactive: 0.066	inactive: 0.071	inactive: 0.035	inactive: -0.047	inactive: 0.034
DSTN (UniProt P60981)	inactive: -0.087	inactive: -0.048	inactive: -0.121	inactive: -0.04	inactive: -0.05	inactive: -0.008	inactive: -0.002	inactive: 0.014	inactive: -0.025	inactive: -0.035	inactive: 0.037
DNAJC5 (UniProt Q9H3Z4)	inactive: -0.028	inactive: 0.032	inactive: 0.068	inactive: -0.041	inactive: -0.051	inactive: -0.046	inactive: 0.004	inactive: -0.027	inactive: -0.014	inactive: -0.015	inactive: 0.018
DNAJB11 (UniProt Q9UBS4)	inactive: -0.018	inactive: 0.009	inactive: -0.007	inactive: -0.021	inactive: -0.021	inactive: -0.048	inactive: 0.008	inactive: -0.01	inactive: 0.015	inactive: 0.015	inactive: 0.029
DNAJC6 isoform 2 (UniProt O75061)	inactive: -0.036	inactive: -0.022	inactive: -0.067	inactive: -0.035	inactive: -0.013	inactive: 0.059	inactive: -0.009	inactive: 0.002	inactive: -0.09	inactive: -0.068	inactive: 0.041
EDARADD (UniProt Q8WWZ3)	inactive: -0.081	inactive: 0.004	inactive: 0.018	inactive: 0.136	inactive: -0.008	inactive: -0.017	inactive: 0.005	inactive: 0.047	inactive: -0.073	inactive: 0.011	inactive: -0.09
DPH6 (UniProt Q7L8W6)	inactive: -0.093	inactive: -0.036	inactive: -0.08	inactive: -0.038	inactive: 0.087	inactive: 0.065	inactive: 0.094	inactive: 0	inactive: -0.027	inactive: -0.031	inactive: -0.04
DNAJC11 (UniProt Q9NVH1)	inactive: -0.012	inactive: -0.037	inactive: -0.052	inactive: -0.038	inactive: 0.005	inactive: -0.008	inactive: 0.012	inactive: -0.021	inactive: -0.056	inactive: 0.006	inactive: -0.011
DUT (UniProt P33316)	inactive: 0.001	inactive: -0.028	inactive: -0.057	inactive: -0.094	inactive: -0.055	inactive: -0.006	inactive: 0.035	inactive: -0.03	inactive: -0.041	inactive: -0.007	inactive: 0.027
EDEM1 (UniProt Q92611)	inactive: 0.066	inactive: 0.019	inactive: -0.063	inactive: 0.083	inactive: -0.005	inactive: 0.101	inactive: 0.079	inactive: 0.059	inactive: 0.051	inactive: -0.086	inactive: -0.033
DNMT1 isoform 2 (UniProt P26358)	inactive: -0.004	inactive: -0.044	inactive: -0.004	inactive: -0.017	inactive: -0.006	inactive: 0.043	inactive: 0.015	inactive: -0.008	inactive: -0.031	inactive: -0.014	inactive: -0.006
DTL (UniProt Q9NZJ0)	inactive: -0.086	inactive: 0.189	inactive: -0.036	inactive: -0.036	inactive: 0.077	inactive: 0.032	inactive: -0.094	inactive: -0.049	inactive: -0.037	inactive: -0.118	inactive: -0.134
DOCK9 isoform 4 (UniProt Q9BZ29)	inactive: 0.113	inactive: -0.179	inactive: -0.029	inactive: -0.073	inactive: 0.058	inactive: 0.003	inactive: 0.011	inactive: -0.027	inactive: 0.056	inactive: 0.056	inactive: -0.015
DNAJB6 (UniProt O75190)	inactive: -0.08	inactive: -0.059	inactive: -0.018	inactive: -0.052	inactive: -0.03	inactive: 0.018	inactive: -0.025	inactive: -0.005	inactive: -0.005	inactive: -0.114	inactive: 0.026

Reformatted in markdown: entries from further up.

| Target | log2 fold change [1] | log2 fold change [2] | log2 fold change [3] | log2 fold change [4] | log2 fold change (entinostat) | log2 fold change (vorinostat) | log2 fold change (citarinostat) | log2 fold change (silmitasertib) | log2 fold change [5] | log2 fold change [6] | log2 fold change (entospletinib) |
| --- | --- | --- | --- | --- | --- | --- | --- | --- | --- | --- | --- |
| DPP3 (UniProt Q9NY33) | inactive: -0.013 | inactive: 0.013 | inactive: -0.121 | inactive: -0.035 | inactive: -0.005 | inactive: 0.111 | inactive: 0.032 | inactive: -0.043 | inactive: -0.017 | inactive: 0 | inactive: -0.015 |
| DNAJC6 isoform 2 (UniProt O75061) | inactive: -0.036 | inactive: -0.022 | inactive: -0.067 | inactive: -0.035 | inactive: -0.013 | inactive: 0.059 | inactive: -0.009 | inactive: 0.002 | inactive: -0.09 | inactive: -0.068 | inactive: 0.041 |
